Measurements: patent US20260151391A1, “TREATMENT OF MITOCHONDRIAL DISEASES WITH sGC STIMULATORS” (Tisento Therapeutics Inc., priority 2022, published 2026)
For at least one compound, name, drawing or mass did not settle the structure.

Test system: memory disruption induced by MK-801 in male Long Evans rats
Test: Novel Object Recognition (NOR) test, memory disruption induced by MK-801
Type: in vivo, rat
Details: for Recognition Index versus Saline-MK-801 group (t-test): Compound I-14 study; for Recognition Index versus Saline-MK-801 group (t-test) / recognition index versus Vehicle-MK-801 group: 1 mg/kg IP; for recognition index versus Vehicle-MK-801 group: Compound I-20 study
Experimental: In the present study, a memory saving model was used. MK-801 (Dizocilpine), an uncompetitive antagonist of the NMDA receptor was used to cause deficit of recognition memory. sGC stimulators were evaluated for their efficacy to prevent memory impairment induced by MK-801.
Adult male Long-Evans rats (275-299 gram at arrival from Envigo, Indianapolis, IN) were used in this study. Rats were placed in the experimental rooms and assigned unique identification numbers (tail marks). Rats were housed 2 per cage in polycarbonate cages with filter tops and acclimated for at least 7 days prior to testing. Animal room was maintained in a 12/12 h light/dark cycle (lights on at 07.00 EST), 22±1° C. and relative humidity at approximately 50%. Food and water were provided ad libitum. All animals were examined, handled and weighed prior to the study to assure adequate health and to minimize the non-specific stress associated with testing. Each animal was randomly assigned across the treatment groups. The experiments were conducted during the animal's light cycle phase.
The following compounds and agents were used in these studies: • MK-801 (0.1 mg/kg; Sigma-Aldrich) was dissolved in saline and injected IP, 15 min prior to NOR training. The dose volume was 1 ml/kg.
Galantamine (1 mg/kg; Tocris) was dissolved in saline and injected IP, 15 minutes prior to training. The dose volume was 1 ml/kg.
Compound I-20 (0.03, 0.3 and 1 mg/kg) was formulated in vehicle (0.5% (w/w) methyl cellulose and 0.5% (w/w) Tween 80 in ultrapure water) and orally dosed 60 min prior to NOR training at 2 ml/kg dose volume.
The following groups were tested, with N=16 in each (One rat was removed from the Compound I-20-1 mg/kg-MK-801 group before test started due to a health issue): 1) Vehicle—Saline; 2) Vehicle—MK-801 0.1 mg/kg; 3) Galantamine 1 mg/kg—MK-801; 4) Compound I-20, 0.03 mg/kg—MK-801; 5) Compound I-20, 0.3 mg/kg—MK-801; and 6) Compound I-20, 1 mg/kg—MK-801
Compound I-14 (0.01, 0.1 and 1 mg/kg) was formulated as its Na+ Salt as a solution in MilliQ water and stored as frozen aliquots. The aliquots of compound solutions and compound vehicle were stored in −80° C. and freshly thawed on each testing day. The compound and vehicle were orally dosed 60 minutes prior to NOR training. The dose volume was 10 ml/kg.
The following groups were tested for Compound I-14, with N=16 in each: 1) Saline—MK-801 0.1 mg/kg; 2) Galantamine 1 mg/kg—MK-801; 3) Vehicle—Saline; 4) Vehicle—MK-801; 5) Compound I-14, 0.01 mg/kg—MK-801; 6) Compound I-14, 0.1 mg/kg—MK-801; and 7) Compound I-14, 1 mg/kg—MK-801
NOR test was conducted in an open-field arena (40×40 cm) placed in a sound-attenuated room under dimmed lighting. Each rat was tested separately, and care was taken to remove olfactory/taste cues by cleaning the arena and test objects with 70% alcohol between trials and rats. All training and testing trials were video-taped and scored by an observer blind to treatments.
On Days 1 and 2, rats were allowed to freely explore the arena (no objects inside) for a 5-minute habituation period. On Day 3 (training and testing day), rats were administered vehicle, saline and/or compound solution according to corresponding pretreatment, which is defined as time between injection and start of NOR training. Each animal was placed into the test arena in the presence of two identical objects. Each rat was placed in the arena facing the same direction at the same position, and the time spent actively exploring the objects during a 3-minute training period (T1) was recorded. The rat was returned to its home cage following training. NOR test (T2) was conducted 1 hour after T1. Each rat was placed back into the test arena in the presence of one familiar object and one novel object for 5 minutes, and the time spent exploring both objects was recorded. The presentation order and position of the objects (left/right) in T2 was randomized between rats to prevent bias from order or place preference. […]

COc1ccc2c3c1O[C@H]1C[C@@H](O)C=C[C@@]31CCN(C)C2 [Galantamine, reference compound]
reversal of cognitive deficit induced by MK-801 0.1 mg/kg (i.p.) (1 mg/kg (i.p.), reference compound): significantly reversed the cognitive deficit
Recognition Index versus Saline-MK-801 group (t-test) (0-1 minute time range, P<0.01): significant different
Recognition Index versus Saline-MK-801 group (t-test) (0-3 minute time range, P<0.001): significant different
Recognition Index versus Saline-MK-801 group (t-test) (0-5 minute time range, P<0.001): significant different
recognition index versus Vehicle-MK-801 group (0-1 min time range, Ps<0.01): significantly higher recognition index
recognition index versus Vehicle-MK-801 group (0-3 min time range, Ps<0.001): significantly reversed MK-801-induced memory deficits
recognition index versus Vehicle-MK-801 group (0-5 min time range, Ps<0.05): significantly reversed MK-801-induced memory deficits
